No constants are given. Whether binding was seen depends on the method and setting. In cells and extracts the contact can be indirect. Binding calls can cover weak binding; strength is not graded here.
Target: TRPV4-FLAG (wild type), expressed in MN-1 cells (human) (UniProt Q9HBA0)
Assay: co-IP; co-immunoprecipitations shown only in supplementary figures (2b, 2e, 3f, 3g); transfected cells, cell line and antibodies not told in the main text

Protein sequences, listed by entry. Tags and fused reporters are not part of them. Lines headed by an entry give the natural chain unless they say otherwise; changes in a name come on top.
UniProt Q9HBA0: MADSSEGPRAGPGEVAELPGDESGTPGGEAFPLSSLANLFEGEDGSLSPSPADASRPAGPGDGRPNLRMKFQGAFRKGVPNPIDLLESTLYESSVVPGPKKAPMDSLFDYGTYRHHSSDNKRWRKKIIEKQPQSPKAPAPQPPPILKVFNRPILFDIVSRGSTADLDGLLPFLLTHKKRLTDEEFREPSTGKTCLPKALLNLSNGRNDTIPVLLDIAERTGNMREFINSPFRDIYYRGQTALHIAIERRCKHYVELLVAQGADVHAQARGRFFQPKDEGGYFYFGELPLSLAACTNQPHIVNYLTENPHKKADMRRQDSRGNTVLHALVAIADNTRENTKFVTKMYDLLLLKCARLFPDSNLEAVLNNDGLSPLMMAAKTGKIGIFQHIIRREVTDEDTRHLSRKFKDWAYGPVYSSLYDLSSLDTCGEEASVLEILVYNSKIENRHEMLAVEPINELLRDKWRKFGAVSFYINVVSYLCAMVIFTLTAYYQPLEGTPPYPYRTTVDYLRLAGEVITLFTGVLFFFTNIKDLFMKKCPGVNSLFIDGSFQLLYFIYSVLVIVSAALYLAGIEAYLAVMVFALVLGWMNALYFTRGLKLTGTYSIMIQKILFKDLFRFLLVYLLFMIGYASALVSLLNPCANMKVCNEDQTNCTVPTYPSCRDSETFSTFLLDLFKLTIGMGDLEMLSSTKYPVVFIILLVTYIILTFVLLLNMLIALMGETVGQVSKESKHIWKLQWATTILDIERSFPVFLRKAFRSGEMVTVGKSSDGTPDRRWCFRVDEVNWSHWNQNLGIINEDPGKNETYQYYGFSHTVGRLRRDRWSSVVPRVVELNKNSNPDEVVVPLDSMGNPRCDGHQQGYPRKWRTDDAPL

In the case of “GFP-tagged neuropathy mutant TRPV4 (from UniProt Q9HBA0)”, the binding is reported as “binds”.

Source: publication PMC7933254
